Measurements reported in PubChem BioAssay AID1259307 (Sanger Institute, 2017).
The deposit covers 794 reagents; below is a part drawn at random. In the full data, 15 (1.9%) got an active call. 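Calls reflect lethality without any drug; synergy scores did not enter the calls.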 Entries without a mark were called inactive. Not all columns of the deposit are shown. Not given: the amount of reagent, the time to read-out.

Aim: 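Identify kinases needed for SW620 growth or enhancing BYL719, cetuximab or trametinib effects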 (primary screen)
Cells: SW620 colorectal cancer cells
Reagent: siRNA pool against human genes
Conditions: anchor drugs BYL719 at 1 µM, cetuximab at 5 µg/ml or trametinib at 10 nM, each beside a DMSO vehicle arm
Measured: 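Per-well viability versus non-targeting control pool, replicate-averaged, robust z-score from controls; synergy scores for BYL719 1 µM, cetuximab 5 µg/ml, trametinib 10 nM against DMSO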
Scale: viability robust z-score, no drug: higher = more viable cells
Hit rule: 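Essential when the viability robust z-score without drug is under -3; synergy scores are ignored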
Calls: active = essential (lethal alone); inactive = no change alone

AURKC [SID152150186]: viability robust z-score, no drug = -1.76
PRKCE [SID135620860]: viability robust z-score, no drug = -1.05
HASPIN [SID152153141]: viability robust z-score, no drug = -0.234
IP6K2 [SID56479106]: viability robust z-score, no drug = 0.209
TEC [SID152148252]: viability robust z-score, no drug = 0.399
EPHB1 [SID152152600]: viability robust z-score, no drug = 0.736
GRK6 [SID135620853]: viability robust z-score, no drug = -0.857
BMAL1 [SID134314841]: viability robust z-score, no drug = -0.832
AXL [SID152148834]: viability robust z-score, no drug = 0.277
PIP5K1C [SID134310630]: viability robust z-score, no drug = -1.16
NEK2 [SID56478772]: viability robust z-score, no drug = 0.736
MAST1 [SID135620865]: viability robust z-score, no drug = 0.736
PSKH2 [SID56479040]: viability robust z-score, no drug = 0.736
KCNH8 [SID134311656]: viability robust z-score, no drug = 0.736
CHKB [SID56479083]: viability robust z-score, no drug = 0.736
NME3 [SID135621244]: viability robust z-score, no drug = 0.33
PDK2 [SID56478952]: viability robust z-score, no drug = 0.735

3 entries from above, reformatted:
| gene knocked down | PubChem SID | viability robust z-score, no drug |
| --- | --- | --- |
| HASPIN | SID152153141 | -0.234 |
| IP6K2 | SID56479106 | 0.209 |
| TEC | SID152148252 | 0.399 |

Further results:
VRK1 [SID152147475]: viability robust z-score, no drug = -0.388
PIK3R3 [SID56479284]: viability robust z-score, no drug = 0.252
PMVK [SID135621255]: viability robust z-score, no drug = -0.516
EPHA10 [SID135620971]: viability robust z-score, no drug = -0.197
PSTK [SID134320501]: viability robust z-score, no drug = 0.736
BPTF [SID152156181]: viability robust z-score, no drug = -1.11
DCLK2 [SID152154613]: viability robust z-score, no drug = -0.163
TAF1L [SID152155360]: viability robust z-score, no drug = 0.331
DCLK1 [SID56478913]: viability robust z-score, no drug = 0.736
IRAK2 [SID152151590]: viability robust z-score, no drug = 0.695
PTK6 [SID152152810]: viability robust z-score, no drug = 0.197
